Values from PubChem BioAssay AID652243 (Drosophila RNAi Screening Center, 2013)
The deposit covers about 24,000 reagents; below is a random part of those that have a named target and a result. Over the whole deposit, 246 (1%) got an active call. 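Plates not normalised; calls are printed but the firefly/Renilla ratio behind them is not deposited; fold cut for lowering reported inconsistently.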 Raw values are not corrected between plates. The record does not give: the amount of reagent.

- Assay: 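Fly regulators of androgen-dependent reporter output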 (primary screen)
- System: Drosophila S2R+ cells
- Reagent: long dsRNA against Drosophila genes
- Duration: 72 h (48 h, then 24 h hormone)
- Treatment: synthetic androgen R1881 at 10 nM for 24 h
- Read-out: 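Firefly light from an androgen-responsive reporter and Renilla control light per well, raw and unnormalised, for each of two replicates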
- Direction: firefly reporter light: higher = more light from androgen-responsive reporter; Renilla control light: higher = more constitutive control signal (cell number, transfection)
- Hit rule: 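Hit when the log firefly-to-Renilla ratio dropped or increased by a fixed fold versus the mean of GFP or LacZ controls across duplicate plates; lowering cut given as 1.5 and as 3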
- Meaning of the calls: active = hit: reporter lowered or raised; inactive = no hit

no.	gene	PubChem SID	firefly reporter light, replicate 1	firefly reporter light, replicate 2	Renilla control light, replicate 1	Renilla control light, replicate 2	Call
1	spn-A	SID104196604	1.89e5	1.67e5	1.83e6	2.45e6	inactive
2	Cyp6a13	SID104187167	5.59e5	6.26e5	1.13e6	1.31e6	inactive
3	CG3679	SID104199138	1.24e5	1.17e5	7.88e5	8.58e5	inactive
4	CG3679	SID104204377	2.53e5	3.87e5	9.23e5	8.28e5	inactive
5	CG32512	SID104200311	3.46e5	4.11e5	1.99e6	2.27e6	inactive
6	CG32512	SID104200343	32454	55857	3.81e5	2.41e5	inactive
7	CG32512	SID104201163	7.44e5	7.45e5	1.89e6	1.47e6	inactive
8	Fam92	SID104182744	1.02e6	6.74e5	2.49e6	2.14e6	inactive
9	Fam92	SID104207781	4.80e5	4.94e5	8.88e5	1.07e6	inactive
10	Ssl1	SID104191426	60154	76655	2.64e5	2.97e5	inactive
11	mask	SID104195162	1.41e5	1.40e5	1.60e6	1.41e6	inactive
12	mask	SID104195797	75217	87494	4.18e5	4.28e5	inactive
13	mask	SID104195810	91295	92783	4.98e5	5.27e5	inactive
14	mask	SID104203609	3.14e5	3.43e5	3.70e5	3.34e5	inactive
15	bsh	SID104183290	4.86e5	4.70e5	2.61e6	3.67e6	inactive
16	bsh	SID104203959	9.67e5	7.98e5	8.55e5	7.63e5	inactive

Look-ups from the list.
Cyp6a13 [SID104187167], Renilla control light, replicate 1: 1.13e6
bsh [SID104183290], Call = inactive
CG3679 [SID104204377], Renilla control light, replicate 2 = 8.28e5

Next entries:
no.	gene	PubChem SID	firefly reporter light, replicate 1	firefly reporter light, replicate 2	Renilla control light, replicate 1	Renilla control light, replicate 2	Call
17	zuc	SID104181952	6.17e5	7.27e5	1.85e6	2.35e6	inactive
18	CG1161	SID104203502	1.05e6	9.38e5	1.01e6	1.10e6	inactive
19	CG14402	SID104182178	97756	1.18e5	1.24e6	8.83e5	inactive
20	CG11456	SID104191457	32448	25605	3.33e5	2.80e5	inactive
21	Ripalpha	SID104182449	1.31e5	1.45e5	8.50e5	1.17e6	inactive
22	Jhbp12	SID104194413	1.47e5	1.84e5	2.57e6	2.71e6	inactive
23	CG13630	SID104194423	67551	68120	8.08e5	8.33e5	inactive
24	CG33278	SID104190128	83171	72536	1.27e6	1.36e6	inactive
25	CG33278	SID104205108	2.71e5	2.78e5	5.55e5	6.35e5	inactive
